Library screening results

Data taken from ChEMBL document CHEMBL3988442, “University of Dundee, Small-Polar-MMV Screening Library” (2021).

Each number is a percent effect as filed.
The record does not define 0% and 100%; most values in the screen are far below 50% and negative numbers occur (in some assays of this library far below -100).
Compounds were drawn at random from those tested, without regard to their results.

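Whole-cell assay for inhibitors of Mycobacterium tuberculosis growth, labelled Cornell in the record; the read-out is not stated. The concentration is filed as 10 mM, unlikely as a test dose, so the dose is not known. The record gives no direction; compounds strong in two other growth screens of this library score well above the rest, so higher reads as stronger inhibition. Of about 53,000 compounds tested this way, about 900 (1.7%) reached 50% or more in at least one test.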

compound	Percent Effect
COc1ccc(CNC(=O)CCSCc2csc(C)n2)cn1	-2.711%
Cc1ccc(CC(NC(=O)Cn2cnnn2)c2ccccn2)cc1 (stereo unspecified)	4.759%
O=C(O)C(F)(F)F.O=C(O)C(F)(F)F.[H][C@@]12CCCO[C@]1([H])[C@H](N(C)Cc1ccco1)CN(Cc1ccc(C)s1)C2	15.69%
O=S1(=O)COCCN1Cc1ccc(Cl)c(Cl)c1	31.33%
O=C(CN1CCCC(Cn2cncn2)C1)NCCc1cccs1 (stereo unspecified)	-20.55%
O=C(O)C(F)(F)F.[H][C@@]12OCCN(Cc3ccco3)[C@@]1([H])CC[C@H]2OCC1CCCC1	-5.753%
c1cnnc(N2CCCC(NCc3cn4ccccc4n3)C2)c1 (stereo unspecified)	-18.06%
Cc1cc(NC(=O)NCc2ccc(C)s2)no1	0.08586%
CCN(CC)S(=O)(=O)CCNc1ncnc2cc(F)c(F)cc12	28.94%
O=C(O)Cc1cn2cc(C(F)(F)F)ccc2n1	0.5741%
CC(C)COCc1cncc2c1CCN(C(=O)c1cscn1)C2.O=C(O)C(F)(F)F	5.076%
Cc1nc2ccc(C(=O)N3C[C@@H](O)[C@H](N4CCN(C)CC4)C3)cc2[nH]1	-29.31%
Cn1cc(-c2cnc(-c3ccnn3C)nc2)cc1C(=O)NC1CC1	19.68%
Cc1nc(CN2CC(CO)Oc3ccccc32)sc1C (stereo unspecified)	83.41%
O=C(O)C(F)(F)F.O=C(O)C(F)(F)F.O=C(c1ccncc1)N1CCOC2(COCCN(c3cccnc3)C2)C1 (stereo unspecified)	6.479%
[H][C@@]12CCN(CC3CCOCC3)[C@]1([H])CC[C@@H](c1nnc(C)o1)O2	7.337%
COc1ccc2c(c1)c(-c1nc(N(C)C)ncc1CN)cn2C	29.44%
CCCOc1ccc(CNCCn2cccn2)cc1	20.07%
O=S1(=O)NCC2(CCN(c3ncc(F)cn3)CC2)COc2ccccc21	10.84%
Cc1nc(CC(=O)N2CCC(c3ccn4nccc4n3)CC2)cs1	44.11%
Cc1nccn1-c1cc(CNC(=O)CCS(=O)(=O)C2CCCC2)ccn1	-9.02%
CCc1cc(N2CCC(NCCc3ccc(C)o3)CC2)nc(C)n1	2.371%
O[C@@H]1CN(c2nc3ccccc3s2)CC[C@H]1c1ccc2c(c1)OCO2	18.1%
Fc1cccc(OC2CCN(CCn3cc4ccccc4n3)CC2)c1	26.34%
CNCc1ccc(Oc2cncc(C)n2)cc1	24.06%
CCOC(=O)CNC(=O)N1CCOC(CCc2ccccc2)C1 (stereo unspecified)	-16.89%
c1ccc(CCNC2CCc3ncnn3C2)nc1 (stereo unspecified)	1.304%
CC(C)(O)CSCCNC(=O)c1ccc(F)cc1Cl	24.75%
O=C1NCC(C(=O)NCc2ccccc2CN2CCOCC2)N1 (stereo unspecified)	0.7056%
CCOc1cc(CNC(=O)NCc2nc(C)c(C)s2)ccn1	11.01%
NC(=O)C1CCCN(Cc2ccc(C(=O)Nc3cnns3)cc2)C1 (stereo unspecified)	2.81%
COC(=O)c1ccc(CN2CCC(c3noc(C)n3)CC2)s1	13.46%
CNC(=O)N1Cc2cc(F)ccc2C2(CCN(C)CC2)C1.Cl	9.271%
O=C(c1cscn1)N1CCC2(CC1)CN(c1ccccn1)CCO2	10.2%
CC(c1ccco1)N(C)Cc1cc2cc3c(cc2[nH]c1=O)OCO3 (stereo unspecified)	-14.47%
Cc1nn(C)c(C)c1C1CCCN1CC(=O)Nc1ccncc1 (stereo unspecified)	-2.12%
O=C(CCn1ccc2ccccc21)N1CCN(Cc2cccnc2)CC1	13.69%
CC[C@@H]1N(Cc2ccsc2)CCC[C@]12CCC(=O)N2C.O=C(O)C(F)(F)F	2.508%
Cc1cc(F)ccc1N1CCCC(NC2CCOCC2)C1=O (stereo unspecified)	-44.78%
COc1cccc(-c2n[nH]c3c2CN(C(=O)c2cccc(=O)[nH]2)CC3)c1	-14.35%
CCCN1CCC(c2cc(CCOc3ccc(C(F)(F)F)cc3)[nH]n2)C1 (stereo unspecified)	74.52%
CCCN1CCCn2nc(CNS(=O)(=O)c3cccc(C#N)c3)cc2C1	27.86%
[H][C@@]12CCCN1C[C@@H](CCSC)N(Cc1cn(CC)nc1C)C2	-15.91%
CC(C)c1cnc(CN(C)C2CCN(CCS(C)(=O)=O)C2)o1 (stereo unspecified)	-0.4025%
O=c1[nH]c(-c2ccccn2)nc2c1CCN(S(=O)(=O)N1CCCC1)C2	-0.7228%
CC(=O)N1CCC[C@@H](NCc2c[nH]c3ccccc23)[C@@H]1c1ccc(C)s1.Cl	66.32%
Cn1cc(Br)cc(NC(=O)Cc2cccs2)c1=O	-10.13%
Cc1noc(C)c1C(=O)N1CCOC2(COCCN(C(C)C)C2)C1.O=C(O)C(F)(F)F (stereo unspecified)	-0.3268%
COCCN(C)C[C@@H]1CN(c2cc(C)nc3ccccc23)C[C@@H]1CO	9.119%
O=C(NC[C@H]1OC[C@@H](NCc2ccccc2F)[C@@H]1O)c1ccc(F)cc1	22.43%
O=C(NCc1ccccn1)c1cnc(C2CCCN2)cn1 (stereo unspecified)	-13.32%
[H][C@@]12CCN(c3ccc(C)nn3)C[C@]1([H])[C@H](C(=O)NCCOC)CCO2	-2.447%
Cc1cc(C(=O)N2CCCCC2)ccc1NS(C)(=O)=O	-32.66%
Cl.[H][C@@]12CN(C3CCCC3)CC[C@]1([H])N(C(=O)C1CCCC1)C[C@H]2c1ccsc1	0.8548%
COc1cccc(-c2nc(CNCCn3cccn3)cs2)c1	28.74%
CN(C)c1cc2c(nn1)CCN(C(=O)Cc1ccc3c(c1)CCO3)C2	2.779%

Repeated from the top, 6 entries:

compound	Percent Effect
COc1ccc(CNC(=O)CCSCc2csc(C)n2)cn1	-2.711%
Cc1ccc(CC(NC(=O)Cn2cnnn2)c2ccccn2)cc1 (stereo unspecified)	4.759%
O=C(O)C(F)(F)F.O=C(O)C(F)(F)F.[H][C@@]12CCCO[C@]1([H])[C@H](N(C)Cc1ccco1)CN(Cc1ccc(C)s1)C2	15.69%
O=S1(=O)COCCN1Cc1ccc(Cl)c(Cl)c1	31.33%
O=C(CN1CCCC(Cn2cncn2)C1)NCCc1cccs1 (stereo unspecified)	-20.55%
O=C(O)C(F)(F)F.[H][C@@]12OCCN(Cc3ccco3)[C@@]1([H])CC[C@H]2OCC1CCCC1	-5.753%